Laboratory results from patent US8399206B2, “Methods for diagnosis, prognosis and methods of treatment” (Nodality, Inc., priority 2008, dated 2013).
At least one structure is not confirmed: it was looked up by name or label, or the drawing left a doubt.

Tested on: AML leukemic cells
Experiment: Apoptosis/cytostasis arm: 48-hr kinase inhibitor incubation of AML cells (cleaved PARP, CyclinB1, p-Histone H3)
Format: cell-based, human
Details: 1 uM; two samples with modest SCF and G-CSF but robust Flt3L signaling; single agent and in combination
Protocol: The TKIs impact was measured on distal functional readouts, including apoptosis (cleaved PARP) and cell cycle (CyclinB1-S/G2 phase; p-Histone H3-M phase). All results were compared with results from bone marrow samples from healthy donors (N=6).

## COc1cc2c(N3CCN(C(=O)Nc4ccc(OC(C)C)cc4)CC3)ncnc2cc1OCCCN1CCCCC1 [tandutinib]
  sensitivity to cytostatic effects: particularly sensitive to the cytostatic effects
